Common to all, as to experiment: proximity labelling
Assay [1] addresses SmDOC1-TurboID (Sordaria macrospora) (UniProt F7W7B4).
For assay [2], the target named is SmDOC2-TurboID (Sordaria macrospora) (UniProt F7W7B3).
Assay [3] has as its target SCI1-TurboID (STRIPAK complex interactor 1 fused to the TurboID biotin ligase) (Sordaria macrospora).
Assay [4] shares this target. The source holds these as a separate data set.

The chains behind the UniProt entries cited, without tags or fusion partners. Where a name states a change or a piece, a line headed by the entry shows the natural chain unless it says otherwise.
UniProt F7VW68: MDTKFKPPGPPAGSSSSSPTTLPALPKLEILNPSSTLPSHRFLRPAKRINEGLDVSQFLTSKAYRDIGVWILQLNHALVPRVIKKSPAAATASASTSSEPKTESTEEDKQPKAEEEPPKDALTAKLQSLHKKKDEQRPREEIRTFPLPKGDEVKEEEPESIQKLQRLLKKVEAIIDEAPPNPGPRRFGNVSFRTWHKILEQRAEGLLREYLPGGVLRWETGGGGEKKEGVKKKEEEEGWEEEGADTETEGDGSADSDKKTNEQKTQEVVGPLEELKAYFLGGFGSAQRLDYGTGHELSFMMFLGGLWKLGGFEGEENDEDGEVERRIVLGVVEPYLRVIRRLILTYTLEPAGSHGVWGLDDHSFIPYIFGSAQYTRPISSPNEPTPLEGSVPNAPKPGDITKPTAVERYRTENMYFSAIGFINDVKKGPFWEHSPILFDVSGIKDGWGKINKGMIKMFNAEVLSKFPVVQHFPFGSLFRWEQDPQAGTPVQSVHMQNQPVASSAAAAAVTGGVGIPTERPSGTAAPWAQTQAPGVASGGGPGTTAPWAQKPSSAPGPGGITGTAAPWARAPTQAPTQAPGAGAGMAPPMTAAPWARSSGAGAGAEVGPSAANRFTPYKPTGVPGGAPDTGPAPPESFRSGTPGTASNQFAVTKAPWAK
UniProt F7W136: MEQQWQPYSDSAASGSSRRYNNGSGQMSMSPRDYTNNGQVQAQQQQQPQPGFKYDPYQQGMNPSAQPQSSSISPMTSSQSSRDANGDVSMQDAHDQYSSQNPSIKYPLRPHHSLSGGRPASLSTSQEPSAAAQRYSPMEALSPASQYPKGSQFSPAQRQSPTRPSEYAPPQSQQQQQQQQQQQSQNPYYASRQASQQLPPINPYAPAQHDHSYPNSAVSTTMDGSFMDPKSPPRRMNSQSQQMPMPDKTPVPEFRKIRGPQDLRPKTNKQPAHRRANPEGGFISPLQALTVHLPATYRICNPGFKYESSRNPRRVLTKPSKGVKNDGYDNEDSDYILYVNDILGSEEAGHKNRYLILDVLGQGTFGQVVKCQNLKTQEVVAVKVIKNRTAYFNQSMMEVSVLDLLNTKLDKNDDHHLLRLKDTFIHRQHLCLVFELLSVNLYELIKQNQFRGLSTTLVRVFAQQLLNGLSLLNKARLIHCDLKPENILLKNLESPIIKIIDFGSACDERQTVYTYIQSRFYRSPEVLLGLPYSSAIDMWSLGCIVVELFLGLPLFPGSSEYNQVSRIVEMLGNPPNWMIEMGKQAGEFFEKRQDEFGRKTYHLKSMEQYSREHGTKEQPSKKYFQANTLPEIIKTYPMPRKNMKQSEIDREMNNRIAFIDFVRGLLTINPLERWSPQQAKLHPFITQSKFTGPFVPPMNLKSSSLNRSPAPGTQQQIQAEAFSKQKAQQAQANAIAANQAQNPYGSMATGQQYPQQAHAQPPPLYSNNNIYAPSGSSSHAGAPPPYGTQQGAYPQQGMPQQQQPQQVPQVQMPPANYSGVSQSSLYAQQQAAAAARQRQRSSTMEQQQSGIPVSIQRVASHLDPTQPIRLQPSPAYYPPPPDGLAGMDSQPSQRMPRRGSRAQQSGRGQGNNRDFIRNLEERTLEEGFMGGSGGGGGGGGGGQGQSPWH
UniProt F7VVC1: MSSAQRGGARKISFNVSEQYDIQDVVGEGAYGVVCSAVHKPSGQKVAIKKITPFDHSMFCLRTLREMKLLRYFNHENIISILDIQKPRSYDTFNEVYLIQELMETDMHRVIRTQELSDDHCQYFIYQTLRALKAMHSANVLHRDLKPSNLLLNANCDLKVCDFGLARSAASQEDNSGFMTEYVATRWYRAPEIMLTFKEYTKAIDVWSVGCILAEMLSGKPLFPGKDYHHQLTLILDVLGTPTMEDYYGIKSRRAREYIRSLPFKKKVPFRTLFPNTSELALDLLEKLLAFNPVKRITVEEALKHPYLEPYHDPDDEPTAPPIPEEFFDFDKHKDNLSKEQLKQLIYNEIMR
UniProt F7VT55: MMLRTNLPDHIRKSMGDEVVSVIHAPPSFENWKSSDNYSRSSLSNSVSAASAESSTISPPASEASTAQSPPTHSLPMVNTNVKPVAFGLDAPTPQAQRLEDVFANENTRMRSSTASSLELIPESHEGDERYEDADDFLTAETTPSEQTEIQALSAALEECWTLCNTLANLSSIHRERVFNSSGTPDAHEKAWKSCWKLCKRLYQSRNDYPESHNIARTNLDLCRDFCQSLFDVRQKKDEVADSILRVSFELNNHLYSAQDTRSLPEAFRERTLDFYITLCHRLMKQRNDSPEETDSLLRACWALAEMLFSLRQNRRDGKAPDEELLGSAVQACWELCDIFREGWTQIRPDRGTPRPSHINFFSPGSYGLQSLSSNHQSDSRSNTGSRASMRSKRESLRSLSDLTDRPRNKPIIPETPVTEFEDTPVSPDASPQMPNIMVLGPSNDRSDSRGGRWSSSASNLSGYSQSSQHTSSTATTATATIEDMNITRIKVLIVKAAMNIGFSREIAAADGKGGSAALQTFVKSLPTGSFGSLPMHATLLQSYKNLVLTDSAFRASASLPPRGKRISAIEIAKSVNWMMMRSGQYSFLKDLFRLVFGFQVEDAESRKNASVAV
UniProt F7VR91: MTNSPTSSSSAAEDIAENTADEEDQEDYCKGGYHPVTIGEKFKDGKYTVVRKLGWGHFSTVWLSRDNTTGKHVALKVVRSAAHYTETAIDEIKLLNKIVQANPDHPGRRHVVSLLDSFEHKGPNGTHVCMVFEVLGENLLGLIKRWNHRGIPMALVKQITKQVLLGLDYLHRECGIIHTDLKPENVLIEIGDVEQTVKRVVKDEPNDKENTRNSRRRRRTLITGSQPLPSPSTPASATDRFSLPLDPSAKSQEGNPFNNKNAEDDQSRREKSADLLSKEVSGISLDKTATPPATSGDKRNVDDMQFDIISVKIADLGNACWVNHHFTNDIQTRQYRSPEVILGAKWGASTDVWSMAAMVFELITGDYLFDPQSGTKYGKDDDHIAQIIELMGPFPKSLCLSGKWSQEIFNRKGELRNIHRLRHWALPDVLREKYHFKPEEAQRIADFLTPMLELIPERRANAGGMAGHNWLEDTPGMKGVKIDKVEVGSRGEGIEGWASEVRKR
UniProt F7VS01: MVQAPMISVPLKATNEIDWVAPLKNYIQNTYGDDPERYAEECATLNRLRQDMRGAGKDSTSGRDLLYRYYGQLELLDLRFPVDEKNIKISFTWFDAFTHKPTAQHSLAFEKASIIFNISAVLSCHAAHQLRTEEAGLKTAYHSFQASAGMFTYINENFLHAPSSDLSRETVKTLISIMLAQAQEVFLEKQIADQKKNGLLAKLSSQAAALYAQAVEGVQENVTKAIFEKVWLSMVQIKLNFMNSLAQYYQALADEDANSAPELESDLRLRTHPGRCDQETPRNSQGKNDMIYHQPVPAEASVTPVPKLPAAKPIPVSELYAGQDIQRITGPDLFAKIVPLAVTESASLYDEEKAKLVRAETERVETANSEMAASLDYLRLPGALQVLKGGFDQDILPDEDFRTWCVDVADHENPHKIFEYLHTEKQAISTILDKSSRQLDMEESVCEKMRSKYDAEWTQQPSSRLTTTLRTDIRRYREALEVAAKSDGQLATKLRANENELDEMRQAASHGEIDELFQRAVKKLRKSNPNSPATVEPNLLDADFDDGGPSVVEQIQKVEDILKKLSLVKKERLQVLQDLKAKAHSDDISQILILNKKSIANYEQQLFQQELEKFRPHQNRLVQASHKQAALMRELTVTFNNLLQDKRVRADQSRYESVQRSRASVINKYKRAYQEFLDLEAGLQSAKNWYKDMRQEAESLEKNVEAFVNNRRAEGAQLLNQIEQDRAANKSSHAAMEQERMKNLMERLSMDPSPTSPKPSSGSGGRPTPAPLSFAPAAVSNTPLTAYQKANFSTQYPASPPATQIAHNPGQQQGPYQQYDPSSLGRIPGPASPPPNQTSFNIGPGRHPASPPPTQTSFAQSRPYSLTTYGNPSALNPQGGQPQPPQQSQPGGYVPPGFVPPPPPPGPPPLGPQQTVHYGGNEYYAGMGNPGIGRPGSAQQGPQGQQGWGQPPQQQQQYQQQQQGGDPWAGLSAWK
UniProt F7VSX1: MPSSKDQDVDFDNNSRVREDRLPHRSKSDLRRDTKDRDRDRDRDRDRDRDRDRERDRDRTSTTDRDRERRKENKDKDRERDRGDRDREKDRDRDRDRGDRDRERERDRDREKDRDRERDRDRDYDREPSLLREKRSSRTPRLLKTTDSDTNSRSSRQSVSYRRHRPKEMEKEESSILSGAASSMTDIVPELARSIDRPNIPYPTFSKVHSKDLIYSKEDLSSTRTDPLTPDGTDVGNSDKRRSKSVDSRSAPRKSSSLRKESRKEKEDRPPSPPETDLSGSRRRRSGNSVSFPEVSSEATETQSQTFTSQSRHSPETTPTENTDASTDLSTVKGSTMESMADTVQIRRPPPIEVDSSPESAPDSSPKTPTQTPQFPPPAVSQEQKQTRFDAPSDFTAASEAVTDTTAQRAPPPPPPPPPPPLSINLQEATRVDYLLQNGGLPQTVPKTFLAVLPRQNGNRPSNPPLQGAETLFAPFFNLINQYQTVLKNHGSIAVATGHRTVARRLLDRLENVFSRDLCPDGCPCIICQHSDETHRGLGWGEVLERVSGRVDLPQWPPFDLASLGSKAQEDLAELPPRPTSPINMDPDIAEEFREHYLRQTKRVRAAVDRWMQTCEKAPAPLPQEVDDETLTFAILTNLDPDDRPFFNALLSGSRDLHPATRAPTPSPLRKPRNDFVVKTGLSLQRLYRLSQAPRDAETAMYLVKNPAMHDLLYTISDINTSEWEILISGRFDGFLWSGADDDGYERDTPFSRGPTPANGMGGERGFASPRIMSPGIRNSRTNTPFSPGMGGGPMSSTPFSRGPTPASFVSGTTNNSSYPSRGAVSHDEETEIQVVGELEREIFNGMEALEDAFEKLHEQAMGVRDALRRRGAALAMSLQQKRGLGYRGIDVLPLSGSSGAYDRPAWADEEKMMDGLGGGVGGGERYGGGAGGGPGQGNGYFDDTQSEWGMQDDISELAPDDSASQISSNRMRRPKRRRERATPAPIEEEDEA

Like-named read-outs stand apart in the source and are kept apart here. No constants are given. Whether binding was seen depends on the method and setting. Binding seen in cells or lysates may run through a third protein. A yes stands for co-enrichment or nearness to the bait. Other partners may have been found. For some assays here: No binding means not detected with the bait.

With SmDOC2 (from UniProt F7W7B3), in assay [1], the binding entry is given as “binds”.
For the molecule “PP2A phosphatase activator PTPA1 (from UniProt F7VW68)”, the binding entry in assay [2] was “binds”.
With “protein kinase YAK1 (from UniProt F7W136)”, the binding entry in assay [1] is recorded as “binds”.
As for MAK2 (from UniProt F7VVC1), in assay [2], the binding result is “binds”.
Take HAM5 (from UniProt F7VPN9): the binding result in assay [1] is “binds”; in assay [2], “no binding”.
As to SMAC_05755 (from UniProt F7VT55), the binding result in assay [1] and in assay [2] was “binds” throughout.
As for “protein kinase DSK1 (from UniProt F7VR91)”, in assay [2], the binding entry is “binds”.
Turning to SmBRO1 (from UniProt F7VS01), the binding result in assay [2] is “binds”.
As to SMAC_05428 (from UniProt F7VSX1), in assay [1], the binding entry is “binds”.
Take MEK2-t1 (from UniProt F7W4K9): the binding entry in assay [1] and in assay [2] was “binds” each time.

B1: PRO11 (protein, UniProt Q70M86 1-845)
chain: MGTNGVHVSFGAGHEMGGVMGNGSGQPPATEYTLQGVMRFLQTEWHRHERDRNAWEIEKQEMRARIANLEGQARRADATQKALKRYVSILEKKVKEQSAALKSGGKEKGVEDEAEAEDNKTKLDRSALIQEKLRPNTKLSGAPNEAENVEIGPPDDESARNELKTFLDQCQAEFTYLMVTPANPQPPRESPPLPILDDFREGEALNQQLEQSYQRSQQSQIRDLLAQQAAAANATNVAAVQSQQQQPQQQQHAVGPRPQTNQPPKGYGELAQGAPMERSSRGQQLHDILKSGETPDWSASMQSQPVEEPTSALSKAPPMVRGDGREPAVPKSASTTDAWDFNESNFQDPNAMPQPTPQQSFSSRPDTDAFPSAENLTKSPNRGALSHRRKSSSGMARRRSAEHELSLGSLQQKAEGTMFKFRFGLRGHLDVVRTVIFSGGGSPGEPEICTAGDDGLVKRFHIPDRHIGQRNADGDLDVAADFTHRGHSGAVLSLASWSPSPNFSTGGRAQGDGWIFSGGQDATIRVWERGRVDPKATLDGHTDAVWALCVLPTNLGAIFGQTNSHGPPDRILLVSGAADGTVKVWAVSAPPQLTSPQPGPGRRGPGGRVRGNSMSSGSAFPSSPQPTTASNSPFHHTLVHTIKRANSEASPTCITALSPNGETFAVSYADAAIIVYDTRSGEEIGTMASLDTYDGTNNTAVNAVVATTVGLDQTQGPGGEDESGGGPTGGGRSMAGSGVEGTIISGHEDRYIRFFDANSGQCTYNMLAHPGSVSSLSLSPDGRELVSAGHDMSLRFWSLETRSCTQEMTCHRSMRGEGVCAVVWSQDGRWVVSSGGDGMVKVYAR
For the molecule B1, the binding result in assay [3] and in assay [4] was “binds” each time.

B2: PRO22 (protein, UniProt F7VWV9 1-1120)
chain: MTIMNALWSKATSSSGDSAQKSAKPTNDAVNTTSEALPDLSERPNAPALPARPALQRNQPSAPPPAAPSNPPPPVPSGSGSGNANNASAQPQDSLSLAQLRRIVAEFPKSEPIAYDYVYSDMGPIEEEVDEWFFYDFWQYVRLNNANHAFDSAWVKMYGEDETWESVDDDGREKFVRNEVEQLQVSSDKTARVEAIGTLLYIVLGRWTATVKKANLPNLADHKVKSAATKEQLDAMKAGVKLLAKYGGLPPMWDALRKAFELFWADDGDASQRVQANNEELMELMHLMTILYISLQTTMDDVEDMAVARKELLALNPNLVHFMLHATAKLRWDDRNILPQAQVGSATFGIPVAANQHRMLMSSQVFLLFWKSLLLVFGGSKHIAEAKKATAETLSDVKDKEIITASPLDYHVFRQEITSKYPSYIPPQCAIPLEAEQTSILPPLPNHPTRNNGQNGILPGPPNQSASASILHQPVHIATPAPSPPPSPGVGGKGGKKQNYQTNQNFPFMYPPLDATSNSAGGKGGAGLQDLLVGRKWEGSDVPASIIEAGELFSTRTRMTRATRQLWEERERFLKFERGWEGADEDLIDELDLSELTLEEKEELGLLKESEKKKEKHGHEIDLGPRPVDDDIKRRLEAVEEFYKEALPHLQSLVIVLLKAIVAIASSFVQPPPGQQNPGPQNNGRAGGGPPQGRGQNNGNNASNDPPSPSDDNVDEARSREIAAKAVTGIMILLLKWLKLSHILKFEYFTQLLLDSNYLPLVLKLFALHDVQQVVESKTDRIEHSFFYFCASRSGVIPPQGLINPTATDFEDVDVSEDEAAPPAIKRNRSPPGAEKGGPPDASSQPTQQQQQQQRFENSDVQSRPEVDELGYPVNPLPKEPITDFSRRNFFSLINYLRVMQKICKHKAHRNLLLVHYKSSNILRKSLKVPQQELRLYTLKLFKNQVPYCGRKWRQSNMRVITAIYLHCRPELRDEWLSGSDVDAEVEEALPLEQALRSLTHWFNVQRYPERMGAEVTAAMREERDFFTRELEKSDWMGWEGIMAGGGMGMDGGGGGPEPMMGMQGMQGMPGMPGMGMGMNMGMPGMGIGGMPGMGGMAGIEYAAAAAAAQTEHENSMGWS
Consider B2, for which the binding entry in assay [3] and in assay [4] was “binds” each time.

These data come from doi:10.1101/2025.10.28.685088.
